No constants are given. Whether binding was seen depends on the method and setting. In cells and extracts the contact can be indirect. For some assays here: A result given as binding can be weak or reduced; the word gives no strength. Where a sequence is shown, tags or fusion partners need not be part of it.
Key:
Flag-tagged 14-3-3σ [1] = molecular target: T1, Flag-tagged 14-3-3σ (UniProt O70456); experiment: co-IP; CCE cells co-transfected with 14-3-3σ-Flag and GSK-3β WT, S9A or T309A, RIPA lysate; IP with anti-Flag antibody, Western blot with anti-GSK-3β antibody
T1 sequence: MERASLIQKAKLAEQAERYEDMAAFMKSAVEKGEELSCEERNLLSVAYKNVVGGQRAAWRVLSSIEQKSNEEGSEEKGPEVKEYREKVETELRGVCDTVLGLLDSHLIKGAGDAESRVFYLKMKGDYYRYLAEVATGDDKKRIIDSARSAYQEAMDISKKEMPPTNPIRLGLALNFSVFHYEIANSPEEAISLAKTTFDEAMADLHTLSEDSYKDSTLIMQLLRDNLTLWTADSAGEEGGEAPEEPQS

Protein sequences, listed by entry. Tags and fused reporters are not part of them. Lines headed by an entry give the natural chain unless they say otherwise; changes in a name come on top.
UniProt P49841: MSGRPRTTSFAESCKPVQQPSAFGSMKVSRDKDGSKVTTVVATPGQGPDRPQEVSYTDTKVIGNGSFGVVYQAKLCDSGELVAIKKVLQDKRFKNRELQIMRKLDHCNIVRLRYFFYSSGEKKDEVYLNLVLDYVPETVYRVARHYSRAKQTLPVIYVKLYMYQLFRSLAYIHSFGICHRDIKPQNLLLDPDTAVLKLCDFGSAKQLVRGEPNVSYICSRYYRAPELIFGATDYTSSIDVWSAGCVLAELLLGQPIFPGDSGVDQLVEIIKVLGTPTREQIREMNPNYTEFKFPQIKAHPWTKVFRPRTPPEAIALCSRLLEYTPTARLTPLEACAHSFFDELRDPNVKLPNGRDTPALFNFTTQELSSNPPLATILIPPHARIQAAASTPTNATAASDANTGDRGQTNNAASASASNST

Flag-tagged 14-3-3σ [2] = molecular target: T1, Flag-tagged 14-3-3σ; experiment: co-IP; mESCs (CCE; also R1 and D3 for 14-3-3σ) transfected with a Flag-tagged 14-3-3 isoform, lysed in RIPA buffer; IP with anti-Flag antibody, Western blot for endogenous proteins

Row | binding (Flag-tagged 14-3-3σ [1]) | binding (Flag-tagged 14-3-3σ [2]) | Substance
1 | binds | – | GSK-3β Thr309A mutant (from UniProt P49841) (enzyme)
2 | – | no binding | axin, endogenous (mouse (endogenous in CCE))
